PubChem BioAssay AID743454 | Peter MacCallum Cancer Centre – 2014
The deposit covers about 18,000 reagents; shown is an unselected part. 450 of all reagents (2.5%) count as active. 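Single biological run; no consistent viability z cut-off exists, so the class columns, not z-scores, define the calls.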

Purpose: 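Knock-downs lowering viability or raising caspase 3/7 activity in vorinostat-treated resistant cells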 (primary screen)
Cells: human HCT116-VR colon cancer cells, selected for vorinostat resistance
Reagents: siRNA pool against human genes, 40 nM siRNA pool
Timing: vorinostat for 24 h, read-out about 72 h after transfection
Treatment: vorinostat at 2.5 µM final
Detection: 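Cell viability by CellTiter-Fluor and caspase 3/7 activity by luminescence, each scaled to mock wells per plate, duplicates averaged, then robust z-scored over all plates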
Direction: viability robust z-score: higher = more viable cells than screen typical; caspase robust z-score: higher = more caspase 3/7 activity than screen typical
Hit rule: 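Hits are knock-downs in viability class RV1/RV2 or caspase class CA1/CA2, excluding ones that killed cells in the no-drug cell-count arm; hits then retested with single siRNAs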

target gene | viability hit class | caspase hit class | viability robust z-score | caspase robust z-score | outcome
CARD17P (GeneID 440068) | no change | no change | 1.02 | 1.85 | inactive
CD46 (GeneID 4179) | no change | no change | 0.37 | -0.64 | inactive
PNOC (GeneID 5368) | no change | no change | -0.44 | -0.88 | inactive
OR2AE1 (GeneID 81392) | no change | no change | -0.16 | -0.52 | inactive
SYNC (GeneID 81493) | no change | no change | -0.9 | 0.38 | inactive
BRSK2 (GeneID 9024) | no change | no change | 1.08 | -0.96 | inactive
UGDH (GeneID 7358) | no change | no change | -1.45 | 0.08 | inactive
LGALS4 (GeneID 3960) | no change | no change | -0.55 | 2.07 | inactive
DESI2 (GeneID 51029) | no change | no change | -1.06 | 4.69 | inactive
NONO (GeneID 4841) | no change | no change | -0.62 | 0.64 | inactive
SLC35G2 (GeneID 80723) | no change | no change | 0.13 | -0.48 | inactive
TMPRSS3 (GeneID 64699) | no change | no change | -0.12 | -0.44 | inactive
MAGEE2 (GeneID 139599) | no change | no change | 1.12 | 0.14 | inactive
PPP1R3F (GeneID 89801) | no change | no change | 0.26 | -0.28 | inactive
TRIM28 (GeneID 10155) | no change | no change | -1.68 | 4.56 | inactive
VPS37B (GeneID 79720) | no change | no change | 1.81 | 2.7 | inactive
GPR6 (GeneID 2830) | no change | no change | 0.37 | -0.98 | inactive
RXRB (GeneID 6257) | no change | no change | 1.31 | -0.3 | inactive
ZIM3 (GeneID 114026) | no change | no change | 1.54 | -0.6 | inactive
MCMBP (GeneID 79892) | no change | no change | 0.27 | -0.71 | inactive
DCP1B (GeneID 196513) | no change | no change | -0.71 | -1.1 | inactive
AGPAT3 (GeneID 56894) | no change | no change | 0.93 | 0.57 | inactive

2 entries from above, reduced to “viability hit class”:
VPS37B (GeneID 79720)	no change
GPR6 (GeneID 2830)	no change

Next entries follow.
target gene | viability hit class | caspase hit class | viability robust z-score | caspase robust z-score | outcome
EPS8L2 (GeneID 64787) | no change | no change | 0.96 | 0.66 | inactive
GJD4 (GeneID 219770) | no change | no change | 0.72 | -0.52 | inactive
HYAL3 (GeneID 8372) | no change | no change | 0.82 | -0.18 | inactive
SLCO1B1 (GeneID 10599) | no change | no change | -0.24 | -0.52 | inactive
SEC61B (GeneID 10952) | no change | CA2 (caspase activation) | -2.84 | 5.52 | active
GRIK3 (GeneID 2899) | no change | no change | -0.78 | 0.92 | inactive
PKD1L1 (GeneID 168507) | no change | no change | -0.34 | 0.04 | inactive
PHYHD1 (GeneID 254295) | no change | no change | -0.62 | -0.48 | inactive
HMGN2P46 (GeneID 283651) | no change | no change | -0.73 | 0.6 | inactive
CLINT1 (GeneID 9685) | no change | no change | -1.7 | 0.92 | inactive
EOGT (GeneID 285203) | no change | no change | -0.28 | 0.03 | inactive
FOXD2 (GeneID 2306) | no change | no change | -0.39 | -0.04 | inactive
SLC35G3 (GeneID 146861) | no change | no change | -1.31 | -0.9 | inactive
EMILIN1 (GeneID 11117) | no change | no change | -1 | -0.38 | inactive
SLC35G1 (GeneID 159371) | no change | no change | 0.84 | -0.74 | inactive
TDP2 (GeneID 51567) | no change | CA1 (caspase activation) | 0.46 | 7.67 | active
DAZAP1 (GeneID 26528) | no change | no change | 1.71 | -0.58 | inactive
